{"sequences": {"note": "Chains of the proteins cited; added tags and fusions are not shown.", "UniProt Q15286": "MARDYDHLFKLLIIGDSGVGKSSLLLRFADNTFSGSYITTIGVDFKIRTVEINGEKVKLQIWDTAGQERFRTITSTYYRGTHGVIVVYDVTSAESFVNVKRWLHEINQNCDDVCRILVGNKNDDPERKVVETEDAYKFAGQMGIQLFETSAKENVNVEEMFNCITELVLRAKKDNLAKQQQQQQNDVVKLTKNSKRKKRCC"}, "source": "paper PMC5512060", "target": "Rab35-WT–GST (UniProt Q15286)", "test": "affinity purification with mass spectrometry; Rab35–GST or GST on glutathione-Sepharose beads incubated with HUVEC lysates with 100 uM GTPγS, 2 h, 4 °C; eluted with 5 mM GDP, 20 mM EDTA, 1.5 M NaCl; silver-stained bands identified by mass spectrometry; only the target purified", "note": "Results are given in words; binding and its absence hold for the method and conditions named. Binding seen in cells or lysates may run through a third protein. These calls come from enrichment with a bait or labelling near it, and not all partners need be listed.", "data": [{"binder": "ACAP2 (endogenous, HUVEC) (protein, UniProt Q15057 1-778) MKMTVDFEECLKDSPRFRAALEEVEGDVAELELKLDKLVKLCIAMIDTGKAFCVANKQFMNGIRDLAQYSSNDAVVETSLTKFSDSLQEMINFHTILFDQTQRSIKAQLQNFVKEDLRKFKDAKKQFEKVSEEKENALVKNAQVQRNKQHEVEEATNILTATRKCFRHIALDYVLQINVLQSKRRSEILKSMLSFMYAHLAFFHQGYDLFSELGPYMKDLGAQLDRLVVDAAKEKREMEQKHSTIQQKDFSSDDSKLEYNVDAANGIVMEGYLFKRASNAFKTWNRRWFSIQNNQLVYQKKFKDNPTVVVEDLRLCTVKHCEDIERRFCFEVVSPTKSCMLQADSEKLRQAWIKAVQTSIATAYREKGDESEKLDKKSSPSTGSLDSGNESKEKLLKGESALQRVQCIPGNASCCDCGLADPRWASINLGITLCIECSGIHRSLGVHFSKVRSLTLDTWEPELLKLMCELGNDVINRVYEANVEKMGIKKPQPGQRQEKEAYIRAKYVERKFVDKYSISLSPPEQQKKFVSKSSEEKRLSISKFGPGDQVRASAQSSVRSNDSGIQQSSDDGRESLPSTVSANSLYEPEGERQDSSMFLDSKHLNPGLQLYRASYEKNLPKMAEALAHGADVNWANSEENKATPLIQAVLGGSLVTCEFLLQNGANVNQRDVQGRGPLHHATVLGHTGQVCLFLKRGANQHATDEEGKDPLSIAVEAANADIVTLLRLARMNEEMRESEGLYGQPGDETYQDIFRDFSQMASNNPEKLNRFQQDSQKF", "values": [{"measurement": "binding", "value": "binds"}]}]}
